Test results published in paper PMC9934367, “Functional impact of subunit composition and compensation on Drosophila melanogaster nicotinic receptors–targets of neonicotinoids” (PLOS Genetics, 2023).

How the values were obtained:
[1] = tested on: D. melanogaster nAChRs; test: Multivariate analysis of factors determining affinity (pEC50) and efficacy (Imax); settings: for Coefficients (95% CI), Imax / Coefficients (95% CI), pEC50: multivariate analysis, adjusted model, acetylcholine as reference, 12 nAChRs
[2] = tested on: D. melanogaster nAChRs; test: Lattice analysis of subunit factors determining affinity (ΔpEC50)
[3] = compound factor, Acetylcholine as Reference, adjusted model using all covariates

Compound | pEC50 Coefficients (95% CI) [1] | Imax Coefficients (95% CI) [1, 3] | Coefficients (95% CI), Imax [1] | Coefficients (95% CI), pEC50 [1] | pEC50 Coefficients (95% CI) [1, 3] | ΔpEC50, mean (95% confidence interval), lattice analysis ([2]; subunit Dα1) | ΔpEC50, mean (95% confidence interval), lattice analysis ([2]; subunit Dα2) | ΔpEC50, mean (95% confidence interval), lattice analysis ([2]; subunit Dα3) | ΔpEC50, mean (95% confidence interval), lattice analysis ([2]; subunit Dβ2)
O=[N+]([O-])NC1=NCCN1Cc1ccc(Cl)nc1 [Imidacloprid, imidacloprid] | 1.414 (1.113 − 1.715)* | -0.333 (-0.403 − -0.263)* | -0.333 (-0.403 − -0.263) ^* | 1.414 (1.113 − 1.715) ^* | – | – | – | – | –
CN/C(=N\[N+](=O)[O-])NCc1cnc(Cl)s1 [Clothianidin, clothianidin] | – | -0.951 (-1.020 − -0.881)* | -0.951 (-1.020 − -0.881) ^* | 2.229 (1.928 − 2.530) ^* | 2.229 (1.928 − 2.530)* | -0.340 (-0.765 − 0.085) | -0.792 (-1.493 − -0.090)* | 0.648 (-0.348 − 1.643) | 0.232 (-0.386 − 0.850)
N#C/N=C1\SCCN1Cc1ccc(Cl)nc1 [Thiacloprid, thiacloprid] | – | -0.881 (-0.951 − -0.811)* | -0.881 (-0.951 − -0.811) ^* | 1.785 (1.484 − 2.086) ^* | 1.785 (1.484 − 2.086)* | -0.035 (-1.210 − 1.140) | -0.652 (-0.951 − -0.352)* | 0.328 (-0.201 − 0.856) | 0.218 (-0.389 − 0.826)

Like-named read-outs stand apart in the source and are kept apart here. Marks after values point to notes of the source that are not given here.
